Here are results for 43 targets from the supplement of paper PMC6411743.

Amino acid sequences for entries named in this document (tags omitted). A change or cut given only in a name is not applied to a line headed by its entry.
UniProt P63104: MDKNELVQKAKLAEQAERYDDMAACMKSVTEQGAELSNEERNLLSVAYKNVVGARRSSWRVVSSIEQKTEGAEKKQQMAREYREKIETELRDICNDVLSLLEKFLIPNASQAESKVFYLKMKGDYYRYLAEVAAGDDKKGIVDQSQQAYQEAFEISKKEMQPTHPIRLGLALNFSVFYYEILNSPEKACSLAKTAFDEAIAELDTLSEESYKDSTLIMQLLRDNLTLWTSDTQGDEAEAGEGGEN
UniProt Q12849: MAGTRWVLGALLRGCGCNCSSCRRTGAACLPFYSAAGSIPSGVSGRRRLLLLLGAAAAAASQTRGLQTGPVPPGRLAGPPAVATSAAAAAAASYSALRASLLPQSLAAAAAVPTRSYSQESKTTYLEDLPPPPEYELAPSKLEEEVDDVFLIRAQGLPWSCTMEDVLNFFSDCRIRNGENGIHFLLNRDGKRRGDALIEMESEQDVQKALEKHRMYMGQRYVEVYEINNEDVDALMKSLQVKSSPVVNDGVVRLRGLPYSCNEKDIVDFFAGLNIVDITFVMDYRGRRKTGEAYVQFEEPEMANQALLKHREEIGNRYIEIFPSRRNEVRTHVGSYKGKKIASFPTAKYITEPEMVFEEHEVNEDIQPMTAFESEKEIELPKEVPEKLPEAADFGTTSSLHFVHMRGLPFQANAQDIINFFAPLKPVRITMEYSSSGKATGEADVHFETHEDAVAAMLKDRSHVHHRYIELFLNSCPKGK
UniProt P15586: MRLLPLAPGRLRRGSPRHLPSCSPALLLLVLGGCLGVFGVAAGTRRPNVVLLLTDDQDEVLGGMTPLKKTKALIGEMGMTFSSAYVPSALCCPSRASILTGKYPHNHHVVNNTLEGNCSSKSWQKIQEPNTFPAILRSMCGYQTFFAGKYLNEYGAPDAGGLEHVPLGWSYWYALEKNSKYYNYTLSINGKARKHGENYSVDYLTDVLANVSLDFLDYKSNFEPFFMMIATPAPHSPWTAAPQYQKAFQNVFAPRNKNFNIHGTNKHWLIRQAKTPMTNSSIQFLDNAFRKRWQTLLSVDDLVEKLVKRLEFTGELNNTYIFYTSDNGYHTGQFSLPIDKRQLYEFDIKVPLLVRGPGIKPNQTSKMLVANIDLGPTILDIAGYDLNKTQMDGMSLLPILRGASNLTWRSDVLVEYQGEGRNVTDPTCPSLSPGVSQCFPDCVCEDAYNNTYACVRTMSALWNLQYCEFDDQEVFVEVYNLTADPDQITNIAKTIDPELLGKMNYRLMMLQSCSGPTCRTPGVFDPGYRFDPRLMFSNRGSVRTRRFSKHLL
UniProt O15347: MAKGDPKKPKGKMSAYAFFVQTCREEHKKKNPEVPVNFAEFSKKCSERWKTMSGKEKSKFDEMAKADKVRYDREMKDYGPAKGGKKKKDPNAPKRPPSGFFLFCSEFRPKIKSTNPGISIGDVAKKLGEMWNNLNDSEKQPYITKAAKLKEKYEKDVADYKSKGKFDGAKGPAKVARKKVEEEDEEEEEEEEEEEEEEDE
UniProt Q9H0R8, whole entry, looked up: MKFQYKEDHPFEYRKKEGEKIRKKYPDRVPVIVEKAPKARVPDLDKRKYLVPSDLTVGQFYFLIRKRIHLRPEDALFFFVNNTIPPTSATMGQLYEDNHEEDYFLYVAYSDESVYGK
UniProt P49821, whole entry: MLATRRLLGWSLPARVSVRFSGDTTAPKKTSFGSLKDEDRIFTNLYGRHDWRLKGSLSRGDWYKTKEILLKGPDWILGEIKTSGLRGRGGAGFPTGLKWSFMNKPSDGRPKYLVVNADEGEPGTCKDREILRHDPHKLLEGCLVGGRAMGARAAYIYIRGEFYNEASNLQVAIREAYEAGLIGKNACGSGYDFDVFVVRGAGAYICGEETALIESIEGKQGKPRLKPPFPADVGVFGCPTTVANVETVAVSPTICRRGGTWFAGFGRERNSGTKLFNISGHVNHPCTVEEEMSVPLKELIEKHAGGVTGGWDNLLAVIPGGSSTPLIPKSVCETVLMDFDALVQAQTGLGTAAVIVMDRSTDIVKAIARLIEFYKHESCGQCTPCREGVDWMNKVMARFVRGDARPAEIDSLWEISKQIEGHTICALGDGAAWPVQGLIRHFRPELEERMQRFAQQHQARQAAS
UniProt Q9HCU9: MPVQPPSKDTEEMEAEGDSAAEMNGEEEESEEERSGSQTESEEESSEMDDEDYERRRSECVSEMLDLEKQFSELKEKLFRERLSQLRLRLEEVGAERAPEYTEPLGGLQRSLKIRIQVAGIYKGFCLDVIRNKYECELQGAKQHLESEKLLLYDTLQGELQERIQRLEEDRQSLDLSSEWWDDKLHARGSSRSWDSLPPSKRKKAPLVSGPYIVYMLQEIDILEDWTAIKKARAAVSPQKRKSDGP
UniProt O43292: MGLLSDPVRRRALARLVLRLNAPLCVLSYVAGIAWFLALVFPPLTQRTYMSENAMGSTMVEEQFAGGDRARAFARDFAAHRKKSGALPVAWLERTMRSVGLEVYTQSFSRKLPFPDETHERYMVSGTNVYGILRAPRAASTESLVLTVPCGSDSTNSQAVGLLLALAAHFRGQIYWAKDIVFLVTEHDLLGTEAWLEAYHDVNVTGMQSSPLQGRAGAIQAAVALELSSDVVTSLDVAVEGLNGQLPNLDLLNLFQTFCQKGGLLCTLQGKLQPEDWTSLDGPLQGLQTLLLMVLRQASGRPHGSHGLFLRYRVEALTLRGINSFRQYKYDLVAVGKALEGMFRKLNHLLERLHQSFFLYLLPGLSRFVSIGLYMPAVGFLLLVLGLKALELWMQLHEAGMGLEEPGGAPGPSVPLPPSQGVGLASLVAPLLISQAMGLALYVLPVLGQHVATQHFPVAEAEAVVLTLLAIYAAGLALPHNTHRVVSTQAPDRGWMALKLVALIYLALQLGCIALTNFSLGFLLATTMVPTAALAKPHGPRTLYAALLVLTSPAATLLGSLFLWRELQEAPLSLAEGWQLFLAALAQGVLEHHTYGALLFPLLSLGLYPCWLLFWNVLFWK
UniProt Q9UGN5: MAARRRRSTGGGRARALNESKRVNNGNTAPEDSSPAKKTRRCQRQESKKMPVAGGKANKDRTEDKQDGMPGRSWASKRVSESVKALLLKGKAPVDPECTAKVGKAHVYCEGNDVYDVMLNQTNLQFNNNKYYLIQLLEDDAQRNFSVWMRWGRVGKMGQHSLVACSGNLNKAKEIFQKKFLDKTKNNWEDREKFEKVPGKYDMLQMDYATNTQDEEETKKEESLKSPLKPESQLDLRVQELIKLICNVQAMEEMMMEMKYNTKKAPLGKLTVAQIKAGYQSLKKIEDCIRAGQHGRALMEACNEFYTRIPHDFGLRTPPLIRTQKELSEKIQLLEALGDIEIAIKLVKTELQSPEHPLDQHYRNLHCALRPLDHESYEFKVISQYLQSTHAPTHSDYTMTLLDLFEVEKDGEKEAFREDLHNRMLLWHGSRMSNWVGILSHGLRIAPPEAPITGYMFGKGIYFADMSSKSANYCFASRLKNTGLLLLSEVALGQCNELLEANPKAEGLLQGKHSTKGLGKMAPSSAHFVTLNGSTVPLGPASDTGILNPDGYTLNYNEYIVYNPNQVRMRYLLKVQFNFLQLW
UniProt O43427: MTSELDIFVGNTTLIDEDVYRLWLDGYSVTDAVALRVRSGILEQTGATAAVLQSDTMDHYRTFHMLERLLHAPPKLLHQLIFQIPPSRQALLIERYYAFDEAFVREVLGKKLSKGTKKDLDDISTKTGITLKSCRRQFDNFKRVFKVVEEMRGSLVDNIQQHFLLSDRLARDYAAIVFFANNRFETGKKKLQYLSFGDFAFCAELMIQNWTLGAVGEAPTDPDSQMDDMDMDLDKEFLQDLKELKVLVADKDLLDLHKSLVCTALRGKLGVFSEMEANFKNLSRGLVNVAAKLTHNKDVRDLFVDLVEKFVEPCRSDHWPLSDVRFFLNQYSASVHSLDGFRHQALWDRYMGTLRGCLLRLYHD
UniProt P20936: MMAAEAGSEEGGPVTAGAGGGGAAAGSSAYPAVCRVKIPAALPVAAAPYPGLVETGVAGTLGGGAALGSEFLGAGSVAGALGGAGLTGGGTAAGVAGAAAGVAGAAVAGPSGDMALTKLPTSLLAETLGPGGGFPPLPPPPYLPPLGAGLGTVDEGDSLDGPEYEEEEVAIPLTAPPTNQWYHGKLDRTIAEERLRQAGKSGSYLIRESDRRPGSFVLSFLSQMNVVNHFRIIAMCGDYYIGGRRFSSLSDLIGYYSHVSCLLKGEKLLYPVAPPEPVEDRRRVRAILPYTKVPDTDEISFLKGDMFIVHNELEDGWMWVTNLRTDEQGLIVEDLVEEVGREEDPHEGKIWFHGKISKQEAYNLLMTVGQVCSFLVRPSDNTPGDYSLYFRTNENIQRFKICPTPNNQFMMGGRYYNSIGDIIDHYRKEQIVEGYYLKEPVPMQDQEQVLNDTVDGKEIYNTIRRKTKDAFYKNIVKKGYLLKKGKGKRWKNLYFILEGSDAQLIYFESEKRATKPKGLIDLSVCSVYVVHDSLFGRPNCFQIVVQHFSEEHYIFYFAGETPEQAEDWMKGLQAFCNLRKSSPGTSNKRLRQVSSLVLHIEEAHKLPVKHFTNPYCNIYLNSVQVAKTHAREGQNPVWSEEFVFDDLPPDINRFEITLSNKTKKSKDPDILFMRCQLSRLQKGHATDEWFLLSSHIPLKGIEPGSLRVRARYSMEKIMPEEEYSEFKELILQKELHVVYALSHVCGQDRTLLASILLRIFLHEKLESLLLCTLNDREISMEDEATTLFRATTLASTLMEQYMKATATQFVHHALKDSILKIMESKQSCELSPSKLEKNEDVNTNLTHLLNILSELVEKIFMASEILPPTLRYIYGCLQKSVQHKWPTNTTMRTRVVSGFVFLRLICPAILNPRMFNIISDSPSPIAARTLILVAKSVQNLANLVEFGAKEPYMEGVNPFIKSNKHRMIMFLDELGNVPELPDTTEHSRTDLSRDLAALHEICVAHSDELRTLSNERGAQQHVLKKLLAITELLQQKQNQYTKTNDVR
UniProt O43913: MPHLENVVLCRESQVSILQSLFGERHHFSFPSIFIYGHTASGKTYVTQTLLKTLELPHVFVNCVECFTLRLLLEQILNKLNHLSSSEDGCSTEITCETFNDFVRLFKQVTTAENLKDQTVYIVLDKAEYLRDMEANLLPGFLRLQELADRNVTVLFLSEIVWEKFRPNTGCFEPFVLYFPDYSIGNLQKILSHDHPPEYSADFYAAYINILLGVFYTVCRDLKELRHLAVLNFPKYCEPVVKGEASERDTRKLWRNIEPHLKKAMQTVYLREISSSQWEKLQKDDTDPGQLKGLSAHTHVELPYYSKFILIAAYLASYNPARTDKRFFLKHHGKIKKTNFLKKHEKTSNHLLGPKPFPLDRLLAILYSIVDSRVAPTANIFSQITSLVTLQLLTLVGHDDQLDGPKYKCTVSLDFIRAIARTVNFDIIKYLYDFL
UniProt O43674, whole entry: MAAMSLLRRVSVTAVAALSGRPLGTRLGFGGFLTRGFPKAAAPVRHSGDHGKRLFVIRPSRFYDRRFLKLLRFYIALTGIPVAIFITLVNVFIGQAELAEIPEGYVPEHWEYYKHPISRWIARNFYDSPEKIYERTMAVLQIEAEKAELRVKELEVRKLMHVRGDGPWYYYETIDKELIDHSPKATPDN
UniProt P98171: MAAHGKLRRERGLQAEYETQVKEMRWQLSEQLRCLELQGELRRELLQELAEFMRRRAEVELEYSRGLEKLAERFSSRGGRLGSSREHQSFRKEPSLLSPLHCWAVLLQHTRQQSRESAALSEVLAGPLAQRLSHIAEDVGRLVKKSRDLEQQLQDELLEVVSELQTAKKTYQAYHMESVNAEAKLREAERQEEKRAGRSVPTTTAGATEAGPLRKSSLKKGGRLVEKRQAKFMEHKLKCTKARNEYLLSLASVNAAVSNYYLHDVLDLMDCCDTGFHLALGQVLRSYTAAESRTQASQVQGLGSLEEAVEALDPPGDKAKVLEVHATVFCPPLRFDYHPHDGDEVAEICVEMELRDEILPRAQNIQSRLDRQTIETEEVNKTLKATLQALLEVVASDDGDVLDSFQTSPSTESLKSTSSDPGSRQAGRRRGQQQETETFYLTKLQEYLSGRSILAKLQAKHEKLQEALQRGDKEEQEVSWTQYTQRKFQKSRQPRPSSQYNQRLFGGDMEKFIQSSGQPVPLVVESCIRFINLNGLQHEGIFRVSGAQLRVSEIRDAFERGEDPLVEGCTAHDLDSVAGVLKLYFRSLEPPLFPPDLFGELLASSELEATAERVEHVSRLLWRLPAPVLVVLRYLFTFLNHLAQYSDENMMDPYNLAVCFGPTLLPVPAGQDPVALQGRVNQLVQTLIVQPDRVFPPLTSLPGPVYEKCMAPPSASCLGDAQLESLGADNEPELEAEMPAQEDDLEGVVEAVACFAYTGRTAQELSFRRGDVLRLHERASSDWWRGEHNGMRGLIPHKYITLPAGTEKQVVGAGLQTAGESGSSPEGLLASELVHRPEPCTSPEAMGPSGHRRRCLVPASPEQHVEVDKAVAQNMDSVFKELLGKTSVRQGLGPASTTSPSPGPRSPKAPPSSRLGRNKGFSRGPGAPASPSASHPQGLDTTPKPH

± gives the standard deviation of the averaged measurements. Only a part is listed here, and it is no random draw. Small differences around the control level are noise.

Compound in the assay: Nc1ncnc2c1ncn2[C@@H]1O[C@H](COP(=O)(O)OP(=O)(O)NP(=O)(O)O)[C@@H](O)[C@H]1O [adenylyl imidodiphosphate]
The experiment in a line: NP40-soluble protein abundance relative to vehicle (solubility fold change) (ratio); higher = more soluble protein in presence of AMP-PNP. The gist of the method:
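Across three independent experiments, values are fold changes against the detergent-processed vehicle for each replicate, based on vsn-normalised intensities. The samples were Jurkat crude lysate treated with eight concentrations (0.1 to 10 mM) for 10 min at room temperature and then 3 min at 37 °C. Lysate was solubilised with 0.8% NP40 and benzonase, ultracentrifuged, and the supernatant analysed by TMT-labelled LC-MS/MS.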

Consider “E7EW18 and related entries (UniProt P06746)”, for which the NP40-soluble protein abundance was found to be 0.999 ± 0.029 (concentration: 0.1mM) and 1.04 ± 0.035 (concentration: 0.5mM).
Turning to “F5GX11 and related entries (UniProt P25786)”, the NP40-soluble protein abundance stood at 1.01 ± 0.017 (concentration: 0.1mM) and 1.04 ± 0.034 (concentration: 0.5mM).
Consider “E7EVZ2 and related entries (UniProt P63104)”, for which the NP40-soluble protein abundance was determined as 0.996 ± 0.037 (concentration: 0.1mM) and 1.04 ± 0.073 (concentration: 0.5mM).
For “F5H5I6 and related entries (UniProt Q12849)”, in that order: 0.979 ± 0.027 and 0.988 ± 0.011.
With “F6S8M0 and related entries (UniProt P15586)”, the NP40-soluble protein abundance was 0.941 ± 0.052 (concentration: 0.1mM) and 0.989 ± 0.041 (concentration: 0.5mM).
Take “E7EQU1 and related entries (UniProt O15347)”: the NP40-soluble protein abundance is 1.01 ± 0.097 (concentration: 0.1mM) and 1.18 ± 0.18 (concentration: 0.5mM).
Take “E7EVX2 and related entries (UniProt Q13439)”: the NP40-soluble protein abundance turned out to be 0.98 ± 0.022 (concentration: 0.1mM) and 0.986 ± 0.045 (concentration: 0.5mM).
With “E9PLE4 and related entries (UniProt Q9BVG9)”, the NP40-soluble protein abundance worked out at 1.04 ± 0.016 (concentration: 0.1mM) and 1.04 ± 0.032 (concentration: 0.5mM).
In the same order, the values of “E7EUC4 and related entries (UniProt Q9NRH2)” are 0.994 ± 0.044 and 0.998 ± 0.068.
Consider “E7ES96 and related entries (UniProt P49768)”, for which the NP40-soluble protein abundance (concentration: 0.1mM) came out at 0.9747 ± 0.0069 and the NP40-soluble protein abundance (concentration: 0.5mM) was found to be 0.981 ± 0.0099.
As to “F5GX09 and related entries (UniProt Q5HYJ3)”, the NP40-soluble protein abundance is, setting by setting: (concentration: 0.1mM) 0.9669 ± 0.0048; (concentration: 0.5mM) 0.995 ± 0.015.
Consider “E7EQL8 and related entries (UniProt Q96RT7)”, for which the NP40-soluble protein abundance is, setting by setting: (concentration: 0.1mM) 1.01 ± 0.025; (concentration: 0.5mM) 0.9862 ± 0.0057.
Regarding “G3V1C3 and related entries (UniProt Q9BZZ5)”, the NP40-soluble protein abundance (concentration: 0.1mM) came to 0.9394 ± 0.0061 and the NP40-soluble protein abundance (concentration: 0.5mM) came out at 0.936 ± 0.017.
With “F5GZY7 and related entries (UniProt Q9H0R8)”, the NP40-soluble protein abundance is, setting by setting: (concentration: 0.1mM) 0.98 ± 0.01; (concentration: 0.5mM) 1.02 ± 0.049.
Take UniProt E9PSI1: the NP40-soluble protein abundance runs as follows: (concentration: 0.1mM) 0.981 ± 0.1; (concentration: 0.5mM) 0.972 ± 0.097.
“F5H136 and related entries (UniProt P17987)”: the NP40-soluble protein abundance reads like this: (concentration: 0.1mM) 1.02 ± 0.041; (concentration: 0.5mM) 0.991 ± 0.035.
In the case of “F8WA39 and related entries (UniProt Q13613)”, the NP40-soluble protein abundance is, setting by setting: (concentration: 0.1mM) 1.04 ± 0.038; (concentration: 0.5mM) 1.02 ± 0.011.
In the case of “E9PNY1 and related entries (UniProt O95159)”, the NP40-soluble protein abundance runs as follows: (concentration: 0.1mM) 1.03 ± 0.061; (concentration: 0.5mM) 1.01 ± 0.059.
For “G3V0I5 and related entries (UniProt P49821)”, in that order: 1.04 ± 0.047 and 1.03 ± 0.016.
As to “E9PJF5 and related entries (UniProt Q9HCU9)”, the NP40-soluble protein abundance by setting is: (concentration: 0.1mM) 1.03 ± 0.018; (concentration: 0.5mM) 1.03 ± 0.055.
For “E9PPZ9 and related entries (UniProt O43292)”, in that order: 1.04 ± 0.065 and 1.02 ± 0.036.
Take “F5H1F7 and related entries (UniProt P29375)”: the NP40-soluble protein abundance runs as follows: (concentration: 0.1mM) 0.9995 ± 0.0079; (concentration: 0.5mM) 1.011 ± 0.01.
In the same order, the values of “E9PIW9 and related entries (UniProt Q6SPF0)” are 1.01 ± 0.043 and 0.993 ± 0.047.
For the target “G3V167 and related entries (UniProt Q9UGN5)”, the NP40-soluble protein abundance is, setting by setting: (concentration: 0.1mM) 0.981 ± 0.024; (concentration: 0.5mM) 0.989 ± 0.075.
Regarding “F2Z2U4 and related entries (UniProt Q9Y4A5)”, the NP40-soluble protein abundance was determined as 1.03 ± 0.046 (concentration: 0.1mM) and 1.01 ± 0.013 (concentration: 0.5mM).
Take “E7ER02 and related entries (UniProt Q9NZJ5)”: the NP40-soluble protein abundance reads like this: (concentration: 0.1mM) 0.995 ± 0.026; (concentration: 0.5mM) 0.984 ± 0.051.
Turning to “E9PAV3 and related entries (UniProt Q13765+H0YHX9+F8VZJ2+E9PAV3)”, the NP40-soluble protein abundance (concentration: 0.1mM) worked out at 0.986 ± 0.044 and the NP40-soluble protein abundance (concentration: 0.5mM) came out at 0.991 ± 0.055.
Consider “F8VQQ3 and related entries (UniProt Q9HB07)”, for which the NP40-soluble protein abundance came out at 1.04 ± 0.015 (concentration: 0.1mM) and 1.01 ± 0.024 (concentration: 0.5mM).
In the case of “E7EQT4 and related entries (UniProt Q9UKV3)”, the NP40-soluble protein abundance by setting is: (concentration: 0.1mM) 0.998 ± 0.038; (concentration: 0.5mM) 1.04 ± 0.048.
In the case of “E9PE19 and related entries (UniProt Q12830)”, the NP40-soluble protein abundance (concentration: 0.1mM) was 0.983 ± 0.039 and the NP40-soluble protein abundance (concentration: 0.5mM) came to 1.02 ± 0.059.
With “F8WAN1 and related entries (UniProt Q69YQ0)”, the NP40-soluble protein abundance is, setting by setting: (concentration: 0.1mM) 1.03 ± 0.02; (concentration: 0.5mM) 1.03 ± 0.047.
On to “E9PC47 and related entries (UniProt P53667)”, for which the NP40-soluble protein abundance was determined as 1.009 ± 0.0021 (concentration: 0.1mM) and 0.979 ± 0.025 (concentration: 0.5mM).
For “E9PSD3 and related entries (UniProt O43427)”, in that order: 0.977 ± 0.033 and 0.989 ± 0.066.
For “E9PGT6 and related entries (UniProt Q99627)”, the NP40-soluble protein abundance amounted to 1.018 ± 0.0053 (concentration: 0.1mM) and 1.01 ± 0.034 (concentration: 0.5mM).
For the target “E9PGC0 and related entries (UniProt P20936)”, the NP40-soluble protein abundance (concentration: 0.1mM) turned out to be 1.02 ± 0.019 and the NP40-soluble protein abundance (concentration: 0.5mM) turned out to be 0.989 ± 0.015.
On to “E7ET07 and related entries (UniProt Q9NXR8)”, for which the NP40-soluble protein abundance is, setting by setting: (concentration: 0.1mM) 1.01 ± 0.014; (concentration: 0.5mM) 1.014 ± 0.0094.
For the target “F5H8D7 and related entries (UniProt P18887)”, the NP40-soluble protein abundance was 0.956 ± 0.029 (concentration: 0.1mM) and 0.992 ± 0.052 (concentration: 0.5mM).
In the case of “E9PRF4 and related entries (UniProt Q15047)”, the NP40-soluble protein abundance is 0.969 ± 0.036 (concentration: 0.1mM) and 0.964 ± 0.051 (concentration: 0.5mM).
On to “G3V0H0 and related entries (UniProt O43913)”, for which the NP40-soluble protein abundance (concentration: 0.1mM) worked out at 0.991 ± 0.034 and the NP40-soluble protein abundance (concentration: 0.5mM) worked out at 0.982 ± 0.063.
As to “E7EVH9 and related entries (UniProt Q08623)”, the NP40-soluble protein abundance runs as follows: (concentration: 0.1mM) 0.971 ± 0.013; (concentration: 0.5mM) 0.988 ± 0.018.
As for “E9PEQ6 and related entries (UniProt Q9UNP9)”, the NP40-soluble protein abundance by setting is: (concentration: 0.1mM) 0.966 ± 0.019; (concentration: 0.5mM) 1.03 ± 0.047.
For “E7EWP0 and related entries (UniProt O43674)”, in that order: 1 ± 0.015 and 1.02 ± 0.047.
As to “E7EQN5 and related entries (UniProt P98171)”, the NP40-soluble protein abundance stood at 1.01 ± 0.023 (concentration: 0.1mM) and 1.02 ± 0.085 (concentration: 0.5mM).
